Measurements as given in paper PMC12670164, “In vitro and clinical data demonstrate negligible risk of drug–drug interactions with opelconazole, a novel inhaled antifungal agent” (Journal of Antimicrobial Chemotherapy, 2025).

Test: Phase 1 study: plasma pharmacokinetics of inhaled opelconazole in healthy volunteers
Assay type: in vivo, human
Settings: multiple inhaled doses, clinical dosing
Method: The study was conducted from February 2023 through June 2023 in accordance with the Declaration of Helsinki, Good Clinical Practice, and the International Conference on Harmonisation guidelines (South African National Clinical Trial Registry code: DOH-27-122022-5196). The study documents were approved by an Independent Ethics Committee. Study participants provided written informed consent prior to any study procedures.
Screening occurred within 28 days prior to the first dosing day (Figure 1). Participants were admitted to the study centre on Day −1 and were required to stay there until approximately 48 h after the morning dosing on Day 15. They returned for subsequent PK blood samples at approximately 72 (Day 18), 168 (Day 22) and 336 h (Day 29) after the last morning dosing. On Days 1 and 15, participants received oral midazolam 7.5 mg and oral caffeine 180 mg together after food ingestion.
Standard doses of midazolam and caffeine were used to characterize their PK profiles. […]
Primary PK parameters assessed for midazolam and its metabolites (1-OH-midazolam, 4-OH-midazolam), caffeine and opelconazole were Cmax and AUC, from time zero to t, where t is the time of the last quantifiable concentration (AUC(0−t); i.e., AUC(0−12) and AUC(0−24)). […]

Which “systemic Cmax at steady state” value does the source give for Cc1cc(N2CCN(c3ccc(C(=O)Nc4ccc(F)cc4)cc3)CC2)ccc1OC[C@@H]1CO[C@@](Cn2cncn2)(c2ccc(F)cc2F)C1 [opelconazole] here?
The value was 7 ng/mL and ≤ 6.830 ng/mL.

Not every entry of the source has a single result; some have several. This list holds those alone. There may be further records. Values that stand side by side differ for a reason that is not stated; dose, time, organism, isomer or construct need not be as stated for each record.
